# Measurements: article PMC6271241, “Several Human Cyclin-Dependent Kinase Inhibitors, Structurally Related to Roscovitine, As New Anti-Malarial Agents” (Molecules, 2014)
# Where two headings read alike, the source gives them in different places.
# Assays:
# Pf3D7 = experiment: [3H]hypoxanthine incorporation growth assay, Pf3D7; assay type: cell-based; details: Plasmodium falciparum
# Experimental: (§1) A selection of 15 molecules 4b–c, 10–13 representing the different 2,6,9-trisubstituted purine series, including newly synthesized products was screened as anti-malarial agents on two different P. falciparum strains, Pf3D7, a standard drug-sensitive African stain, and Pf7G8, a brazilian chloroquino-resistant strain (Figure 3). The compound activity was evaluated during the parasitic erythocytic cycle, by the means of a [^3H] hypoxanthine incorporation assay. It is directly correlated to parasite viability, as described in the experimental section.
# (§2) At first, the activity of the fifteen compounds was screened at three different concentrations (10, 50 and 100 µM) on Pf3D7. Chloroquine which is not a kinase inhibitor, but which is the antimalarial reference drug was used as the positive control. […] Chloroquine was again used as a positive control.
# (§3) Compounds were tested against synchronous ring-stage parasites of Pf3D7 and Pf7G8 strains. Drugs testing were carried out in 96-well microtiter plates. The chloroquine (CQ) diphosphate was purchased from Sigma (Lyon, France). […] For each assay, each drug dilution was analyzed in triplicate. […]
# Pf7G8 = experiment: [3H]hypoxanthine incorporation growth assay, Pf7G8; assay type: cell-based; details: Plasmodium falciparum
# Experimental: as §1, §2, §3
# GSK-3α/β = GSK-3α/β kinase assay (GS-1 peptide); details: 15 µM ATP; Table 1; >10 = no activity at 10 µM
smiles,measurement,setting,value
"CC[C@H](CO)Nc1nc(NCc2ccccc2)c2ncn(C(C)C)c2n1 [Compound 1, (R)-roscovitine, reference compound]",IC50,"Pf3D7; 48 h, read-out: Growth IC50 Pf3D7",10.5 µM
same,IC50,Pf3D7; read-out: IC50 on P. falciparum Strains Pf3D7,10.5 µM
same,IC50,"Pf7G8; 48 h, read-out: Growth IC50 Pf7G8",12.6 µM
same,IC50,Pf7G8; read-out: IC50 on P. falciparum Strains Pf7G8,12.6 µM
same,IC50 GSK-3αβ,GSK-3α/β,N.I.
